Measured values from article PMC10493204.
These are yes or no findings as the source states them, for the method shown. In cells and extracts the contact can be indirect. A result given as binding can be weak or reduced; the word gives no strength.

Sequences of proteins named here, by UniProt entry; tags and fusion partners are left off. A change or cut given only in a name is not applied to a line headed by its entry.
UniProt Q99N13: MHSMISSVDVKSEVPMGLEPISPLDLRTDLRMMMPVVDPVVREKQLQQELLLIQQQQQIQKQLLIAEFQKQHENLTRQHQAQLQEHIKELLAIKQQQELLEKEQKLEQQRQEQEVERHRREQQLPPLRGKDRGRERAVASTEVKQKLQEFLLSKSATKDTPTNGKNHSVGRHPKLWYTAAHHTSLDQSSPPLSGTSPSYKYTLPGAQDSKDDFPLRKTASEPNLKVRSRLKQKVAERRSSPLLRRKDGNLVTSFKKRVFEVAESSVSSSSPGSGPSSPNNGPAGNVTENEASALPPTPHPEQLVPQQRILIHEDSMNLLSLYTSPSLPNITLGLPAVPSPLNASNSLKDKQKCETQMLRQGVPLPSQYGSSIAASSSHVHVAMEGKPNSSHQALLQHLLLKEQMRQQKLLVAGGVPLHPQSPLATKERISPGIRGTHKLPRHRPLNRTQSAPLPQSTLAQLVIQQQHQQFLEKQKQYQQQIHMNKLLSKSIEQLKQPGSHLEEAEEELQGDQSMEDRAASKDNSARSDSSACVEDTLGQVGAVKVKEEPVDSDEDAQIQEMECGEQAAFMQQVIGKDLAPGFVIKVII
UniProt P07356: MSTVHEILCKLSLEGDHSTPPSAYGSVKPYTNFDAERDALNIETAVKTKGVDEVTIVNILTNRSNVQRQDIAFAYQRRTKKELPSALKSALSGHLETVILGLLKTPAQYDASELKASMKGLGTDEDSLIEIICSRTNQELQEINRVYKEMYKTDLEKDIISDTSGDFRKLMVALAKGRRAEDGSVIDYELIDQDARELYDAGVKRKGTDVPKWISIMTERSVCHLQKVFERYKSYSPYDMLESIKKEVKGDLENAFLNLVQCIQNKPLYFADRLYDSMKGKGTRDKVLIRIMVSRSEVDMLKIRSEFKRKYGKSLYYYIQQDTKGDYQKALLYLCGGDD

Biological target: Histone deacetylase 9 (mouse (endogenous in hippocampus)) (UniProt Q99N13)
Test: co-IP; 400 ug hippocampal tissue lysate of CRS mice, antibody overnight at 4 C, Protein A/G PLUS-Agarose 2 h at 4 C, three washes with cold lysis buffer, western blot

binding: binds
Substance: Annexin A2 (from UniProt P07356 1-339)
